PubChem BioAssay AID686943, Drosophila RNAi Screening Center, 2013
Screen: 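Knockdowns that increase or decrease active ERK after insulin receptor stimulation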 (primary screen). System: Drosophila S2R+ haemocyte-like cells expressing YFP-tagged ERK (Rolled). Reagent: long dsRNA against Drosophila genes. Conditions: insulin stimulation versus unstimulated cells; dose and duration not given. Detection: 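Antibody staining for doubly phosphorylated ERK divided by ERK-YFP signal, as plate z-scores, in insulin-treated and untreated cells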. Direction: replicate 1, z-score of dpERK with insulin: higher = more active ERK per ERK-YFP after insulin.
The screen tested about 23,000 reagents; below is an unselected part of those that have a named target and a result. 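Extra replicates exist only for a retested subset of genes; insulin dose and duration not given; both raised and lowered dpERK matter.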 Not all columns of the deposit are shown. Not stated in the record: the amount of reagent, the time to read-out.

NELF-B [DRSC17734]: replicate 1, z-score of dpERK with insulin = 1.26
CG9265 [DRSC03178]: replicate 1, z-score of dpERK with insulin = -0.21
CG9265 [DRSC03179]: replicate 1, z-score of dpERK with insulin = -0.12
cindr (CIN85 and CD2AP related) [DRSC14126]: replicate 1, z-score of dpERK with insulin = 0.2
cindr (CIN85 and CD2AP related) [DRSC14298]: replicate 1, z-score of dpERK with insulin = -0.67
Dus3 (Dihydrouridine synthase 3) [DRSC02059]: replicate 1, z-score of dpERK with insulin = 0.62

Continued, starting with the last 2 of the part before.
cindr (CIN85 and CD2AP related) [DRSC14298]: replicate 1, z-score of dpERK with insulin = -0.67
Dus3 (Dihydrouridine synthase 3) [DRSC02059]: replicate 1, z-score of dpERK with insulin = 0.62
iPLA2-VIA (calcium-independent phospholipase A2 VIA) [DRSC10699]: replicate 1, z-score of dpERK with insulin = -0.02
Cyp6a17 (Cytochrome P450 6a17) [DRSC07378]: replicate 1, z-score of dpERK with insulin = 0.91
CG10602 [DRSC02075]: replicate 1, z-score of dpERK with insulin = -0.43
CG4291 [DRSC00650]: replicate 1, z-score of dpERK with insulin = -0.8
ppk26 (pickpocket 26) [DRSC10991]: replicate 1, z-score of dpERK with insulin = -0.5
kst (karst) [DRSC08719]: replicate 1, z-score of dpERK with insulin = 1.32
